For at least one compound, name, drawing or mass did not settle the structure.
System: female Sprague-Dawley rats
Experiment: clozapine-induced hyperphagia (food intake) in rats
Assay type: in vivo, rat
Conditions: 3 mg/kg po, over 2 h
Protocol: Experiments were performed in individually-housed female Sprague-Dawley rats with free access to food (powdered rat chow containing 20% lard) and tap water at all times. On the day of the experiment, animals (n=10) were dosed orally with vehicle; the neuroleptic clozapine 3 mg/kg; sibutramine 3 mg/kg or sibutramine plus clozapine 3 mg/kg; and their food intake was monitored over 2 h.

CN1CCN(C2=Nc3cc(Cl)ccc3Nc3ccccc32)CC1 [Clozapine]
effect on food intake compared to vehicle-treated control group: significant increase in food intake

Reference: patent US20030008897A1, “Method of controlling weight gain associated with therapeutic drugs” (priority 2000, published 2003)
